The test can be described thus: IkB Signaling. Conditions: ABC-DLBCL IkBa-CBG/CBR dual luciferase ratio (green luciferase fused to IkBa over red control in OCI-Ly3 lymphoma cells), 4 h. From the text: NIH Molecular Libraries Screening Centers Network [MLSCN]
NIH Chemical Genomics Center [NCGC]
Nuclear factor kappa-B (NF-kappa-B) plays an important role in normal B cell development and survival. Diffuse large B cell lymphoma (DLBCL) is the most commonly observed type of non-Hodgkin's lymphoma. Gene expression analysis has identified an activated B cell-like subtype of DLBCL (ABC-DLBCL) which expresses known NF-kappa-B target genes. […] However, targets upstream of IKK have been largely unexplored and so nodes upstream of IKK in the NF-kappa-B pathway remain untested due to the lack of chemical probes.
A cell-sensor assay for I-kappa-B-alpha stabilization was developed with NIH investigator Dr. R. Eric Davis in Dr. Louis M. Staudt's laboratory. The assay uses green (CBG68) and red (CBR) emitting beetle luciferases [Chroma-Glo(TM) developed by Promega Corp.] where the green luciferase is fused to I-kappa-B-alpha and the red luciferase is present in its native state. Both luciferase genes are stably present in the OCI-Ly3 human ABC DLBCL cell line, but their expression is under the control of tetracycline-inducible promoters. Following the addition of doxycycline to induce expression of the luciferases, the green luminescence in control cultures rises only slowly because the CBG fusion partner I-kappa-B-alpha is targeted by IKK activity for rapid degradation. In contrast, green luminescence rises rapidly in the presence of proteasome inhibitors or IKK inhibitors. The rise in red luminescence of CBR is not affected by proteasome or IKK inhibitors, and serves as normalization for cell number and nonspecific effects. Compounds were screened as a concentration-titration series that ranged from 57 uM to 0.7 nM.
NCGC Assay Protocol Summary:
Cells were seeded in 1536-well plates at 5000 cells/3ul in IMDM medium containing 0.5% FBS, w/o phenol red, L-glutamine, 25 mM HEPES, 3 mg/ml sodium bicarbonate. After centrifugation for 1 min. at 1000 rpm, 23 nl of compounds or DMSO were delivered to each well using a pin tool. Then 1ul 80ng/ml doxycycline was dispensed into white solid 1536-well plates and the plates were incubated at 37C/5% C02 in a cell incubator for 4 hrs. Then 4 ul Chroma-Glo luminescent substrate mix (Promega) was added to each well. The plate was incubated at R.T. for 10-15 min. The plates were measured on a ViewLux plate reader for green luminescence (540/20 nm filter) and red luminescence (618/8 nm filter). The green and red luminescent signals were corrected for red and green luminescence filter overlap using previously determined filter calibration constants (determined using the procedure outlined in the Promega Technical Manual). The %Activity was determined from the ratio of corrected green/red luminescent values. Green luminescent and ratio %Activity was determined by normalizing to the difference in signal between basal cells (0% Activity) and cells incubated with 10 uM of the proteasome inhibitor MG-132 (100% Activity). Red luminescent %Activity was normalized to the difference between red luminesence in basal cells (0%Activity) and zero luminescence (-100% Activity).
Concentration-response curves were fitted to the signals arising from the green luminescence (I-kappa-B-alpha-luciferase fusion; IkB-luc) and the red luminescence (unfused luciferase; luc) as well as the calculated ratio. The concentration-effect curves were then classified based on curve quality (r2), response magnitude and degree of measured activity. Compounds were then categorized based on their concentration-response curves for all three datasets (Ikb-luc, luc and ratio).
Keywords: IKK, I-kappa-B, IkB, IkBa, cytotoxicity, luminescence, MLSMR, MLSCN, NIH Roadmap, qHTS, NCGC

Setting [1] is: measured here: control luc red channel unless noted.

This passage reports AC50 results from PubChem BioAssay AID445 (National Center for Advancing Translational Sciences (NCATS), 2006).

The list shows a part of the results. Further columns of the screen follow, without active or inactive calls. The list favours compounds with an active or inconclusive main result. Potencies come from curve fits of mixed quality, noted in brackets.

Broadly, the AC50 is the concentration at which the activity in the assay is half-maximal. Consider `Cc1ccccc1CSc1nc2cc(C(=O)NC3CCCC3)ccc2c(=O)n1Cc1ccccc1`, for which the AC50 under setting [1] is 0.0316 µM [falling, partial curve]. In the case of `Cc1ccc(O)c(NC(=O)c2ccc(Br)c(S(=O)(=O)N3CCCCC3)c2)c1`, the AC50 under setting [1] was 10 µM [falling, partial curve].

Consider `CCC(c1nnnn1C1CCCCC1)N(Cc1ccco1)Cc1cc2ccc(OC)cc2[nH]c1=O` (stereo not drawn), for which, under setting [1], the AC50 is 20 µM [falling, partial curve].

Consider `CCCSc1ccc2nc(NC(=O)OC)[nH]c2c1`, for which the AC50 was 1.58 µM [rising, full curve] (measured here: IkB-luc green channel) and 1.26 µM [rising, full curve] (measured here: control luc red channel). In the case of `Cc1ccc(-n2nc(CO)c(C(=O)NC(C)CCCc3ccccc3)n2)cc1C` (stereo not drawn), under setting [1], the AC50 was 12.6 µM [falling, partial curve]. Same read-out and setting: under `Cc1ccc(C)c2[nH]c(=O)c(CN(Cc3nnnn3C3CCCCC3)CC3CCCO3)cc12` (stereo not drawn) stands 39.8 µM [falling, single point]; under `COc1ccc(C)cc1NC(=O)Cn1c(=O)cc(C)c2c(C)nn(C)c21`, 12.6 µM [falling, partial curve]. `Cc1cc2cc(C(c3nnnn3Cc3ccco3)N3CCc4ccccc43)c(=O)[nH]c2cc1C` (stereo not drawn): under setting [1], the AC50 was 25.1 µM [falling, partial curve]. Same read-out and setting: then `COC(=O)C1=C(N)Oc2cc(N(C)C)ccc2C1c1ccccc1OC` (stereo not drawn), with 5.01 µM [rising, single point] [measured here: IkB-luc green channel]; and `Nn1c(SCC(=O)N2CCCc3ccccc32)nnc1-c1ccc(Cl)cc1`, with 39.8 µM [falling, single point]. Still for that read-out and setting: under `COc1cccc(CNC(=O)c2ccc3c(c2)nnn3C2CCCC2)c1` stands 39.8 µM [falling, single point]. `COc1ccccc1C(=O)Nc1nnc(SCc2cc(=O)c3cc(Cl)ccc3[nH]2)s1`: the AC50 under setting [1] was 6.31 µM [falling, partial curve]. Regarding `COc1ccc(NC(=O)c2c(-c3ccc(C)cc3)nnc3ccccc23)cc1Cl`, under setting [1], the AC50 was 39.8 µM [rising, partial curve, poor fit]. Regarding `Cc1ccc(C)c(N2CCN(C(=O)C3CCCN(S(=O)(=O)c4cccc5nsnc45)C3)CC2)c1` (stereo not drawn), under setting [1], the AC50 is 10 µM [falling, partial curve]. For `O=C(CCC1N=C2c3ccccc3N=C(SCc3ccc(Cl)cc3)N2C1=O)NCCc1ccccc1` (stereo not drawn), the half-maximal activity concentration (AC50) under setting [1] was 25.1 µM [falling, partial curve]. On the same count and under the same terms, under `Fc1ccc(C(NCCc2ccc(Cl)cc2)c2nnc(-c3ccccc3)o2)c(Cl)c1` (stereo not drawn) stands 12.6 µM [falling, partial curve].

Take `COc1cccc(C(=O)NCC2CCN(c3ccc(S(=O)(=O)N4CCOCC4)cc3)CC2)c1`: the AC50 under setting [1] was 15.8 µM [falling, partial curve]. Take `Cc1c(NC(=O)Nc2ccc(Br)cc2F)sc2nc3n(c(=O)c12)CCC(C)CC3` (stereo not drawn): the AC50 under setting [1] is 15.8 µM [falling, partial curve]. The same measure, in the same setting: then `CC(=O)NCC(c1ccc2c(c1)OCO2)N1CCN(c2ccccc2)CC1` (stereo not drawn), with 31.6 µM [rising, single point]; and `CCn1c2ccccc2c2nnc(SCc3ccc(C(=O)OC)o3)nc21`, with 20 µM [falling, partial curve]; and `CCOC(=O)c1ccc(NC(=O)/C(C#N)=C/c2ccc(OC)cc2)cc1`, with 1 µM [falling, partial curve]. Still for that read-out and setting: then `CCCCc1nn2c(=O)cc(COC(=O)c3cccc(NC(=O)CCc4ccccc4)c3)nc2s1`, with 7.94 µM [falling, partial curve]; and `O=S(=O)(NCc1nc2cccnc2n1Cc1ccccc1)c1ccc2c(c1)CCCC2`, with 39.8 µM [falling, single point]. Take `COc1ccc(NC(=O)c2ccc3nc(CCc4ccccc4)oc3c2)c(OC)c1`: under setting [1], the AC50 was 0.398 µM [rising, full curve, poor fit].

For `Cc1ccccc1NC(=O)N1CCc2c(sc3c2CCCC3)C1c1ccccc1` (stereo not drawn), the AC50 under setting [1] was 3.16 µM [falling, full curve]. `CCCCCn1cc2c(c1-c1ccc(Br)cc1)c(=O)n(C)c(=O)n2C`: the AC50 under setting [1] is 25.1 µM [falling, partial curve]. Regarding `COc1ccc(OC)c(NC(=O)c2cc3cc(C)ccc3n2C)c1`, the AC50 under setting [1] is 20 µM [falling, single point]. As for `COc1cccc(NC(=O)Cn2nnc(-c3nc(-c4ccccc4)no3)c2N)c1`, the AC50 under setting [1] is 10 µM [falling, partial curve]. As for `CCSc1nnc(NC(=O)CSc2ncccn2)s1`, under setting [1], the AC50 was 10 µM [falling, partial curve].

As to `CCOc1ccc(C(=O)c2cn(CC(=O)Nc3ccc(F)cc3)c3cc4c(cc3c2=O)OCO4)cc1`, the AC50 under setting [1] is 2 µM [falling, full curve]. For the compound `CCOc1ccccc1CNC(=O)CCCn1ncn2c(cc3occc32)c1=O`, under setting [1], the AC50 is 31.6 µM [falling, single point].

Turning to `Cc1nn(CC(=O)Nc2ccccc2C(F)(F)F)c(=O)c2cccn12`, under setting [1], the AC50 is 25.1 µM [falling, partial curve]. Still for that read-out and setting: then `COC(=O)C1=C(C)Nc2nc(-c3ccccc3)nn2C1c1ccc(C)o1` (stereo not drawn), with 15.8 µM [falling, partial curve]. On the same count and under the same terms, under `Cc1ccccc1NC(=O)Nc1nnc(N2CCCCCC2)s1` stands 31.6 µM [falling, single point]; under `Cc1cc(C)c(C)c(OCC(=O)Nc2ccc(S(=O)(=O)Nc3nc(C)cc(C)n3)cc2)c1`, 7.94 µM [falling, partial curve, poor fit]. `O=C(CS(=O)CC(=O)N(CC(=O)NC1CCCC1)C1CCCCC1)Nc1ccc(F)cc1` (stereo not drawn): the AC50 under setting [1] was 15.8 µM [falling, partial curve]. Turning to `O=C(CSC1=Nc2ccccc2N=C(c2ccc(F)cc2)C1)Nc1cccc(C(F)(F)F)c1`, the AC50 under setting [1] was 39.8 µM [falling, single point]. For the compound `CCc1ccc(NC(=O)CC2C(=O)N(c3cccc(C)c3)C(=O)N2CCC(C)C)cc1` (stereo not drawn), the AC50 under setting [1] is 15.8 µM [falling, partial curve]. The same measure, in the same setting: under `COc1ccc2c(c1)c(C(O)CN1CCN(Cc3ccc4c(c3)OCO4)CC1)c(C)n2C` (stereo not drawn) stands 15.8 µM [falling, partial curve]; under `CCOC(=O)C1CCCN(C(=O)C2CCN(S(=O)(=O)c3c(C)noc3/C=C/c3ccccc3F)CC2)C1` (stereo not drawn), 25.1 µM [falling, single point]; under `CCOC(=O)c1c(C)oc2c(F)c(F)c(F)c(F)c2c1=O`, 20 µM [falling, single point]. Still for that read-out and setting: then `COc1ccc(-c2noc(CCC(=O)NCC3CCN(Cc4cccc(C)c4)CC3)n2)cc1`, with 12.6 µM [falling, partial curve]; and `O=C1NCCCc2c1oc1ccc(O)cc21`, with 15.8 µM [falling, partial curve]. As for `COc1ccc2nc(SCC(=O)Nc3ccc4c(c3)OCCO4)[nH]c2c1`, the AC50 under setting [1] is 15.8 µM [falling, partial curve]. Regarding `COc1ccc(CNC(=O)CN(c2ccc(C(C)C)cc2)S(=O)(=O)c2c(C)nn(C)c2C)cc1`, the AC50 under setting [1] is 12.6 µM [falling, partial curve].

For `COc1ccc(OC)c(Nc2cc(-c3ccccc3)nc(N)n2)c1`, the AC50 under setting [1] was 3.98 µM [rising, full curve] [measured here: IkB-luc green channel]. `Cc1ccc(S(=O)(=O)N2CCCc3cc(NS(=O)(=O)c4cc(F)ccc4F)ccc32)cc1`: the AC50 under setting [1] is 39.8 µM [falling, single point]. For the compound `O=C(NCCc1ccccc1)c1cnc2sccn2c1=O`, the AC50 under setting [1] was 15.8 µM [falling, partial curve]. On the same count and under the same terms, then `CCOC(=O)c1ccc(N2C(=O)c3n[nH]c(-c4ccco4)c3C2c2ccc(OCC)cc2)cc1` (stereo not drawn), with 25.1 µM [falling, single point]; and `CCCC(=O)Nc1cc(C(=O)NCc2ccccc2)ccc1S(=O)(=O)c1ccc(Cl)cc1`, with 2.51 µM [falling, partial curve].

Consider `O=C(CSc1nc2c(oc3ccccc32)c(=O)n1-c1ccccc1)Nc1ccccc1F`, for which, under setting [1], the AC50 was 0.126 µM [falling, full curve, poor fit]. On the same count and under the same terms, then `CCc1ccc(OCc2cc(=O)n3c4c(sc3n2)CCCC4)cc1`, with 6.31 µM [rising, partial curve, poor fit].

Turning to `COc1cccc(N2CCN(C(=O)C3Cc4ccccc4N3C(C)=O)CC2)c1` (stereo not drawn), the AC50 under setting [1] is 25.1 µM [falling, single point]. Regarding `O=C(C1CCC1)N1CCCc2cc(S(=O)(=O)N3CCN(c4ccccc4)CC3)ccc21`, the AC50 under setting [1] is 39.8 µM [falling, single point].

`COc1ccc2c(C)nc(Nc3nc(C)cc(=O)[nH]3)nc2c1`: the AC50 under setting [1] is 39.8 µM [falling, single point].

Take `Cc1cccc(-c2nc3ccccc3n2Cc2ccccc2)c1`: under setting [1], the AC50 is 20 µM [falling, single point]. Same read-out and setting: under `CC(C)OC(=O)C(C(=O)C(F)(F)F)c1cc(NS(=O)(=O)c2ccc3c4c(cccc24)C(=O)N3)ccc1O` (stereo not drawn) stands 12.6 µM [falling, partial curve]. In the case of `CCOC(=O)N1CCc2c(sc(NCc3cccc(F)c3)c2C(=O)Nc2ccc(OC)cc2OC)C1`, the AC50 under setting [1] was 10 µM [falling, partial curve]. For the compound `COc1ccc(Cl)cc1NC(=O)Cn1c(=O)n(Cc2cccs2)c(=O)c2cccnc21`, the AC50 under setting [1] is 10 µM [falling, partial curve]. Still for that read-out and setting: under `CC(=O)Nc1ccc(-n2c(CCC(=O)O)ccc2-c2ccc(Br)cc2)cc1` stands 25.1 µM [falling, single point]; under `CCOC(=O)c1cc(-c2ccc(C)cc2)n(CC(=O)Nc2ccccc2F)c1C`, 3.98 µM [rising, partial curve]. As for `COc1ccc(Br)c2c1-c1nc(NC(=O)c3ccccc3F)sc1C2`, the AC50 under setting [1] is 0.0794 µM [falling, full curve].
